Data taken from patent US11191804B2, “Cytocidal agent” (FUJITA ACADEMY, priority 2018, dated 2021).
Part of at least one peptide drawing is inferred or uncertain, most often the ends.

Legend:
OVCAR3-Luc cells = assay: Cytocidal activity by ATP amount (CellTiter-Glo assay kit); format: cell-based; conditions: 24 hours, FIG. 2
Experimental: The tumor tissue to be transplanted to the mouse was prepared by culturing an ovarian cancer cell line (OVCAR3-Luc cells, transferred from another facility) into which the luciferase gene had been introduced, and used. The OVCAR3-Luc cells were cultured in a culture medium containing a RPMI medium 1640 (11875-093: manufactured by Gibco) containing 10% inactivated FBS (manufactured by Corning) at 37° C. and under a 5 vol % carbon dioxide environment. Passaging was carried out every 2-3 days.
(§1) The cytocidal activity of each peptide was evaluated by measuring the ATP amount in the cells treated with each peptide using CellTiter-Glo (registered trademark) assay kit (manufactured by Promega).
(§2) Specifically, first, the A431-CNGB3-myc cells or the OVCAR3-Luc cells after 3 to 4 passages were seeded in a 96-well plate (manufactured by Corning/Costar, Lot No. 00515003) so as to adjust the cell concentration to 1×10^4 cells/well. […] Luminescence (RLU: RELATIVE LIGHT UNITS) of each reaction solution after standing at room temperature was measured using a Synergy H1 hybrid multimode microplate reader (manufactured by BioTek). The luminescence intensity of the reaction solution is an index of the ATP amount. The smaller the luminescence intensity of the reaction solution, the smaller the ATP amount and the stronger the cytocidal activity of the administered peptide. […]

[1] = system: OVCAR3-Luc subcutaneous tumor; assay: Tumor photon number and tumor volume in OVCAR3-Luc mouse after tail vein administration; format: in vivo; conditions: 1.17 μmol/kg/day tail vein, once a day for six consecutive days
A431-CNGB3-myc cells [2] = assay: TUNEL staining; format: cell-based, human; conditions: A431-CNGB3-myc cells treated with 300 μM peptide
[3] = system: A431-CNGB3-myc cells transplanted into the peritoneum; assay: ATP amount (luminescence) of peritoneum of endometriosis model mice; format: in vivo, mouse; conditions: 5 or 10 mg/10 mL/kg single i.p., 24 hours after administration, FIG. 4
A431-CNGB3-myc cells [4] = assay: Cytocidal activity by ATP amount (CellTiter-Glo assay kit); format: cell-based, human; conditions: 24 hours, FIG. 1
Experimental: A transformed cell (A431-CNGB3-myc cell) obtained by introducing a gene encoding human CNGB3, in which an myc tag was fused in a C-terminal, into an A431 cell (human epithelial-like cell cancer-derived cell strain) and forcibly expressing thereof was prepared as an endometriosis model cell.
as §1
as §2, with “peptide. All trials were measured in triplicate, and the average value thereof was taken as the emission intensity (RLU) of each reaction solution.” for “peptide.”

[5] = system: OVCAR3-Luc subcutaneous tumor; assay: Survival rate of OVCAR3-Luc mouse (Kaplan-Meier); format: in vivo; conditions: 1.17 μmol/kg/day tail vein for six days, observation 20 days

## CC(C)C[C@@H](NC(=O)[C@@H](Cc1c[nH]cn1)NC(=O)[C@@H](C)NC(=O)[C@@H](CC(C)C)NC(=O)[C@@H](Cc1c[nH]cn1)NC(=O)[C@@H](CCCCN)NC(=O)[C@@H](C)NC(=O)[C@@H](CC(C)C)NC(=O)[C@@H](CCCCN)NC(=O)[C@@H](C)NC(=O)[C@@H](CC(C)C)NC(=O)[C@@H](CCCCN)NC(=O)[C@@H](CCCCN)NC(=O)[C@@H](C)NC(=O)[C@@H](CC(C)C)NC(=O)[C@@H](CCCCN)NC(=O)[C@@H](C)NC(=O)[C@@H](CC(C)C)NC(=O)[C@H](N)CCCCN)C(=O)O [Peptide K14D-H5D, KLAKLAK-KLAKLAK-HLAHL]
OVCAR3-Luc cells
  cytocidal activity compared with the K7D-H18D peptide: apparently stronger
OVCAR3-Luc cells; peptide 2.34 to 300.0 μM
  relative ATP amount (%) / cytocidal activity: decreased in a dose-dependent manner
[1]; FIG. 5
  increase rate (%) of the photon number in the back tumor: almost no increase in photon number
[1]; FIG. 6
  increase rate (%) of the tumor volume: almost no increase in tumor volume
A431-CNGB3-myc cells [2]
  TUNEL staining of nuclei (apoptosis): nuclei of almost all cells were stained brown (TUNEL positive)
  number of cells compared with cells not treated with the peptide: apparently fewer cells
[3]
  luminescence intensity (RLU) of the peritoneum (ATP amount): decreased in a dose-dependent manner
A431-CNGB3-myc cells [4]
  cytocidal activity compared with the K7D-H18D peptide: apparently stronger
A431-CNGB3-myc cells [4]; peptide 2.34 to 300.0 μM
  relative ATP amount (%) / cytocidal activity: decreased in a dose-dependent manner
[5]; FIG. 7
  survival rate, euthanasia when the tumor growth rate reached 10 times: significantly improved
[5]; FIG. 8
  survival rate, euthanasia when the tumor growth rate reached 20 times: significantly improved
